Experimental data reported in the supplement of paper PMC12823440, “Inhibitors supercharge kinase turnover through native proteolytic circuits” (Nature, 2025).
The list shows a part of the results. The calls rarely recur for the same compound in another form.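 Kinases were expressed as nanoluciferase fusions in K562 cells and luminescence was read every 4 h between 2 and 18 h as percent of control, DMSO set to 100% and a positive control to 0%. A time point counts as decreased when the signal drops significantly (2 sigma). The hit call is the authors' own, does not follow from the count of time points alone, and its rule is not shown.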

Amino acid sequences for entries named in this document (tags omitted). A change or cut given only in a name is not applied to a line headed by its entry.
UniProt O75460: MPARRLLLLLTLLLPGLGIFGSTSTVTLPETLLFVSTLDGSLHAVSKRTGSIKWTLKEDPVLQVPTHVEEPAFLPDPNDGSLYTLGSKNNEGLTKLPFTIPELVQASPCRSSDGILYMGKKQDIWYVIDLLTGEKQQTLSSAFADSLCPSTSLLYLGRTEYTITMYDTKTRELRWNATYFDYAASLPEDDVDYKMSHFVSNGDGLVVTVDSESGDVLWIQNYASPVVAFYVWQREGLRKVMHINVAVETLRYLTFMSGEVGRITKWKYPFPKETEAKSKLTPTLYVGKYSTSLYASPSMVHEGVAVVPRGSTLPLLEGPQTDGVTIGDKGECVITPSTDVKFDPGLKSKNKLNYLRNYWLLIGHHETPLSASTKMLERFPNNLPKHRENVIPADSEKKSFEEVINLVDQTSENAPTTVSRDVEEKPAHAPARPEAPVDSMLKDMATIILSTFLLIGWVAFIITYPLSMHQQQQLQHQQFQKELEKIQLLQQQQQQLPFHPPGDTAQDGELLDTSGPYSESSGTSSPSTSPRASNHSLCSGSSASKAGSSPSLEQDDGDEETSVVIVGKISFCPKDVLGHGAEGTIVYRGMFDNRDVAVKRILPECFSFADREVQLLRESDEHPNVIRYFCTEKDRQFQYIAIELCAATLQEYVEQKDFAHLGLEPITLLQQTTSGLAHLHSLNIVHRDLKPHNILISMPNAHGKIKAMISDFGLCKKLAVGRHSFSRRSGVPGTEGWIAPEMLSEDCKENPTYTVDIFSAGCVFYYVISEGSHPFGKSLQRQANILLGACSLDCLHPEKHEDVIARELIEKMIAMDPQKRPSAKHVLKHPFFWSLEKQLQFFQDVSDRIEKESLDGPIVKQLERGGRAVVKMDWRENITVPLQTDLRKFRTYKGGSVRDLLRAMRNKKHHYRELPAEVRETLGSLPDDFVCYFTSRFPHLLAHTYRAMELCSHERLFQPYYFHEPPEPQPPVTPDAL
UniProt P11362, whole entry, looked up: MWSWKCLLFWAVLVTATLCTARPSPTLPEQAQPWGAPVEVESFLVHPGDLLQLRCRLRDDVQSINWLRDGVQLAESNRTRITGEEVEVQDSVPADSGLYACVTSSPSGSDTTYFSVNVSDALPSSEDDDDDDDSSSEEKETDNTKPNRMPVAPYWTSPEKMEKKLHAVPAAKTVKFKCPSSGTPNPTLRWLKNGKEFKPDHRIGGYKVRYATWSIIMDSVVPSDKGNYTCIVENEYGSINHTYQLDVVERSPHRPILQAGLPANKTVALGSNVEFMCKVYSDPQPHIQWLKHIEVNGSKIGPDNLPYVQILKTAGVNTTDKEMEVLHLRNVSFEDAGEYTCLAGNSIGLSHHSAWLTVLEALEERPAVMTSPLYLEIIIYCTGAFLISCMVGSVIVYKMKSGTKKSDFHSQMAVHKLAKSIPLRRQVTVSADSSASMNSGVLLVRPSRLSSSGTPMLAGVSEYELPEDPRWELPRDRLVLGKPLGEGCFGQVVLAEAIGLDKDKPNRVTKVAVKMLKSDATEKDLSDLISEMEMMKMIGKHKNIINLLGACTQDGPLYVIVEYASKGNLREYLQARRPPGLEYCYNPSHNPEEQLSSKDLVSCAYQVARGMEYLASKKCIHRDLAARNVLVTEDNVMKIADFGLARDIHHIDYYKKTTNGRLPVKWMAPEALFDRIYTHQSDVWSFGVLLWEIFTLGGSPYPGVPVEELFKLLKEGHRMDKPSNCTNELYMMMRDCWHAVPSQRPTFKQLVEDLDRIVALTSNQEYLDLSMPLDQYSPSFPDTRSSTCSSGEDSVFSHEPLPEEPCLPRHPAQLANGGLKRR
UniProt P21802, whole entry, looked up: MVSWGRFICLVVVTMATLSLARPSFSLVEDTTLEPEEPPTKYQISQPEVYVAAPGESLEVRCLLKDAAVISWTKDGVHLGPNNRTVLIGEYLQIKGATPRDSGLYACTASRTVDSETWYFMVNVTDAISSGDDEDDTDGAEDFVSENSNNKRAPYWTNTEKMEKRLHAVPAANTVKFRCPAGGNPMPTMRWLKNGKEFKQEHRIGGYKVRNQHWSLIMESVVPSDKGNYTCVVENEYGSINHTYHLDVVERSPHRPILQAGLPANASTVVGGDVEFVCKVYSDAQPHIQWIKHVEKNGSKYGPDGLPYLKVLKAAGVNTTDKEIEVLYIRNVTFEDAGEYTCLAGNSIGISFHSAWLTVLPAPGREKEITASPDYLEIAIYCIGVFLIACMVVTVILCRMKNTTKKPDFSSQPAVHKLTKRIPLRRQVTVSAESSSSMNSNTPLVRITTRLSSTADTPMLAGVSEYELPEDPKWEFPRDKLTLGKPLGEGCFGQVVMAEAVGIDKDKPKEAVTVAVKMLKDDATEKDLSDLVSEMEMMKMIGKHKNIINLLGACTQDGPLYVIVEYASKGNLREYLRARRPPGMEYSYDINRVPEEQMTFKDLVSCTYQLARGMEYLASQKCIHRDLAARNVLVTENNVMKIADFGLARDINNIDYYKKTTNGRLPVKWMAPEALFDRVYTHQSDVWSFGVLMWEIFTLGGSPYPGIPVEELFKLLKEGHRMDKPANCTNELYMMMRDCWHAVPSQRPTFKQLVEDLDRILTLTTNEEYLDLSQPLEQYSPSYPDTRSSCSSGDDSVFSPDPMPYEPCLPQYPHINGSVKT
UniProt P36888, whole entry: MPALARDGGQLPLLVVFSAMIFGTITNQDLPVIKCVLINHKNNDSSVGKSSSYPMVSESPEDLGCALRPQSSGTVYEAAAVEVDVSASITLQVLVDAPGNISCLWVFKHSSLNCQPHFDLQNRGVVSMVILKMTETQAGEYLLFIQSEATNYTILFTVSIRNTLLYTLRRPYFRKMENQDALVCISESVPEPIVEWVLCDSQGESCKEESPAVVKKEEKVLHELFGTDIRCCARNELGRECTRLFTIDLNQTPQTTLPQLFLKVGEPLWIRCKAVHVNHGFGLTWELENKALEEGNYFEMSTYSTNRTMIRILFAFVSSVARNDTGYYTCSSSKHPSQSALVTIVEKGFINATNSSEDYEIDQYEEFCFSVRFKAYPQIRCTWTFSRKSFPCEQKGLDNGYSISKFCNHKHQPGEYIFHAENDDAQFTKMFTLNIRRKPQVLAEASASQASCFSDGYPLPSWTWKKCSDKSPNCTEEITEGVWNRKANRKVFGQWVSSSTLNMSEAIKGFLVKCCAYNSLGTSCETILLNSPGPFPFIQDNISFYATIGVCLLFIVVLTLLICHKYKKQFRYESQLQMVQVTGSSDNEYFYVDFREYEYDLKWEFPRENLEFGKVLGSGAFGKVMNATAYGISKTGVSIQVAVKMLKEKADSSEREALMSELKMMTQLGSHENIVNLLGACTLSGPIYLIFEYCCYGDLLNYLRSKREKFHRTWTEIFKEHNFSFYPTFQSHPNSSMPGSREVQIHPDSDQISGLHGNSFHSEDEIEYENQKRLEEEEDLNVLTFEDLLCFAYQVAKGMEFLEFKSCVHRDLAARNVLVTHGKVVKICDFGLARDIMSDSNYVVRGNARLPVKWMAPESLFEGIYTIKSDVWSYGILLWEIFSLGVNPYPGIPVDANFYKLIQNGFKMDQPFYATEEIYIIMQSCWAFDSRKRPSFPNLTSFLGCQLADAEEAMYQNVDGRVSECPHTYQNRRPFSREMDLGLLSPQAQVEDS
UniProt P06241, whole entry, looked up: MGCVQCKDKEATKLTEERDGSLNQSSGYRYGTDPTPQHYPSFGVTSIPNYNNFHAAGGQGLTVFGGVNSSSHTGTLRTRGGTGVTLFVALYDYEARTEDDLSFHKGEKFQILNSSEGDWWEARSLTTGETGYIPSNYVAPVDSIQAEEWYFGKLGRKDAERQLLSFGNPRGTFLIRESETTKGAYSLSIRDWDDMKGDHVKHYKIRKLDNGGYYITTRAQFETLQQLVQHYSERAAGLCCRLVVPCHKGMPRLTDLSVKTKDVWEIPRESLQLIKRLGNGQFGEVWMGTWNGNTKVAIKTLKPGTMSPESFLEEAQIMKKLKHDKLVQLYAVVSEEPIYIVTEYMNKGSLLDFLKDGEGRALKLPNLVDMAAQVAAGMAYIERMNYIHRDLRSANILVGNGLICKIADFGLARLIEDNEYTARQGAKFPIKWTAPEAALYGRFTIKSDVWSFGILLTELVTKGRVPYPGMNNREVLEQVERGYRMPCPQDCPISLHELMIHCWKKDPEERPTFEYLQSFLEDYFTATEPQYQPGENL
UniProt P49840: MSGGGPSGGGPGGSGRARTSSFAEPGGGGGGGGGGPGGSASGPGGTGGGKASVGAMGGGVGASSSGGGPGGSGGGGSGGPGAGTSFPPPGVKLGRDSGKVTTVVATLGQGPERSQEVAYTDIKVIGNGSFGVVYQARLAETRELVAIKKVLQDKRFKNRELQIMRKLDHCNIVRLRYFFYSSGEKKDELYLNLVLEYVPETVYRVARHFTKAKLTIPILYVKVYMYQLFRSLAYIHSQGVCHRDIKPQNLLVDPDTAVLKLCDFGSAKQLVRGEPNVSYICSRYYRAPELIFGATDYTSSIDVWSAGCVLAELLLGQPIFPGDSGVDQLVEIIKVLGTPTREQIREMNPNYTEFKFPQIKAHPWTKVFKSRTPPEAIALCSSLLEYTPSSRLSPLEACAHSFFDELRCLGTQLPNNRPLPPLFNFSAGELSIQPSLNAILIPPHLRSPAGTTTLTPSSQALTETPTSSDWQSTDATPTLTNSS
UniProt P14616: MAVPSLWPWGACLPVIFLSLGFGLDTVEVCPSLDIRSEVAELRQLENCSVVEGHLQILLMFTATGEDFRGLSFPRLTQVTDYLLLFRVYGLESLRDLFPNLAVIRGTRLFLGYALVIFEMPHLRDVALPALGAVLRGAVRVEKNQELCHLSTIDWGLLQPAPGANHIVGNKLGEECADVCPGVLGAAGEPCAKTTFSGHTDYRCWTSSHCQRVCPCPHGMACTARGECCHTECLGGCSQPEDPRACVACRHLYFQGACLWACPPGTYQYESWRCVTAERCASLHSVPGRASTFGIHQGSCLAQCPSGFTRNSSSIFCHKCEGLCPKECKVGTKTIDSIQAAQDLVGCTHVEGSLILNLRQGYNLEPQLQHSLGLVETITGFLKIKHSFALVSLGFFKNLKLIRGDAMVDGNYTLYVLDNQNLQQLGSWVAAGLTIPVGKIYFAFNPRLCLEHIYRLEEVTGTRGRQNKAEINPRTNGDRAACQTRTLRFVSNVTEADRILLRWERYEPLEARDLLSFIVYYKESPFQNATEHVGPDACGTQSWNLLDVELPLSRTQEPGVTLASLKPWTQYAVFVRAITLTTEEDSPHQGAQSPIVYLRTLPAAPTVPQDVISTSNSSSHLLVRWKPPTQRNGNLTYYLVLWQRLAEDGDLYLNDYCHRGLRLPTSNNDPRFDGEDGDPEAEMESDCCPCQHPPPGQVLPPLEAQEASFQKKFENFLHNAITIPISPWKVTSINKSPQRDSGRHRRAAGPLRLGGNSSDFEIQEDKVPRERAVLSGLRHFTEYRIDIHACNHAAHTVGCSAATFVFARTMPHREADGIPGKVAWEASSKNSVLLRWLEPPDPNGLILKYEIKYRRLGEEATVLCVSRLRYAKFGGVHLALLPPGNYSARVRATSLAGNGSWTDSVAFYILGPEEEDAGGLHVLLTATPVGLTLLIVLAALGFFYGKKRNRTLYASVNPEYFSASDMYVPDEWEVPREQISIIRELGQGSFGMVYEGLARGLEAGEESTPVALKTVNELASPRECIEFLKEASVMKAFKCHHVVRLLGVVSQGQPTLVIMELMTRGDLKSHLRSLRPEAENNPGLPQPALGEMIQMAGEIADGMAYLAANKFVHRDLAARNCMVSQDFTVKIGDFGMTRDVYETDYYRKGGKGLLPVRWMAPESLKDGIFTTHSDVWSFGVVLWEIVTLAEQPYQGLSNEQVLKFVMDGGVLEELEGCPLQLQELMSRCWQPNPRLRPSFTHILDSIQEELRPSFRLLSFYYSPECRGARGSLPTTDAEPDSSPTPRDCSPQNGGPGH

Assays:
Assay in all cases: kinase-Nluc reporter destabilization hit call (1 = scored as downregulated) (binary); higher = compound decreases kinase abundance
Conditions in all cases: K562; 2-18 h
ERN1 = ERN1 (UniProt O75460)
FGFR1 = FGFR1 (UniProt P11362)
FGFR2 = FGFR2 (UniProt P21802)
FGFR3 = FGFR3 (UniProt P22607)
FGR = FGR (UniProt P09769)
FLT3 = FLT3 (UniProt P36888)
FYN = FYN (UniProt P06241)
GSK3A = GSK3A (UniProt P49840)
HER2 = HER2 (UniProt P04626)
INSRR = INSRR (UniProt P14616)

| SMILES | kinase-Nluc reporter destabilization hit call (ERN1) | kinase-Nluc reporter destabilization hit call (FGFR1) | kinase-Nluc reporter destabilization hit call (FGFR2) | kinase-Nluc reporter destabilization hit call (FGFR3) | kinase-Nluc reporter destabilization hit call (FGR) | kinase-Nluc reporter destabilization hit call (FLT3) | kinase-Nluc reporter destabilization hit call (FYN) | kinase-Nluc reporter destabilization hit call (GSK3A) | kinase-Nluc reporter destabilization hit call (HER2) | kinase-Nluc reporter destabilization hit call (INSRR) |
| --- | --- | --- | --- | --- | --- | --- | --- | --- | --- | --- |
| Cc1cnc(Cl)nc1-c1ccc(N(Cc2ccc(CNC(=O)C(F)F)cc2)C(=O)c2ccc(O)cc2O)cc1 (10 µM) | inactive: 0 | inactive: 0 | inactive: 0 | inactive: 0 | inactive: 0 | inactive: 0 | inactive: 0 | inactive: 0 | inactive: 0 | inactive: 0 |
| NCCNS(=O)(=O)c1ccc(Cl)c2ccncc12 [CKI-7 (free base)] (10 µM) | inactive: 0 | inactive: 0 | inactive: 0 | inactive: 0 | inactive: 0 | inactive: 0 | inactive: 0 | inactive: 0 | inactive: 0 | inactive: 0 |
| O=CN1CCN(c2ccc(C=C3C(=O)Nc4ccccc43)cc2)CC1 (10 µM) | inactive: 0 | inactive: 0 | inactive: 0 | inactive: 0 | inactive: 0 | inactive: 0 | inactive: 0 | inactive: 0 | inactive: 0 | inactive: 0 |
| N#Cc1cnc(Nc2cc(NC[C@H]3CNCCO3)c(C(F)(F)F)cn2)cn1 (10 µM) | inactive: 0 | inactive: 0 | inactive: 0 | inactive: 0 | inactive: 0 | – | inactive: 0 | inactive: 0 | inactive: 0 | inactive: 0 |
| CCC(F)(F)c1cc(N2CCC(S(C)(=O)=O)CC2)nc2sc(C(N)=O)c(N)c12 (10 µM) | inactive: 0 | inactive: 0 | inactive: 0 | inactive: 0 | inactive: 0 | inactive: 0 | inactive: 0 | inactive: 0 | inactive: 0 | inactive: 0 |
| CCCCNc1ncc2c(-c3ccc(F)cc3)nn(CC3CCC(N)CC3)c2n1 (stereo unspecified) (2.5 µM) | inactive: 0 | inactive: 0 | inactive: 0 | inactive: 0 | inactive: 0 | inactive: 0 | inactive: 0 | inactive: 0 | inactive: 0 | inactive: 0 |
| C[C@@H]1CN(Cc2ccc(F)cc2)[C@@H](C)CN1C(=O)c1cc2c(C(=O)C(=O)N(C)C)cn(C)c2cc1Cl [Talmapimod] (10 µM) | inactive: 0 | inactive: 0 | inactive: 0 | inactive: 0 | inactive: 0 | inactive: 0 | inactive: 0 | inactive: 0 | inactive: 0 | inactive: 0 |
| COc1cc2nc(-c3cc(F)ccc3O)nc(N[C@@H]3CNC[C@H]3C(C)(C)O)c2cc1OC (2.5 µM) | inactive: 0 | inactive: 0 | inactive: 0 | inactive: 0 | inactive: 0 | inactive: 0 | inactive: 0 | inactive: 0 | inactive: 0 | inactive: 0 |
| S=C(NCc1ccc2c(c1)OCO2)N1CCN(c2ncnc3c2oc2ccccc23)CC1 [Amuvatinib] (2.5 µM) | inactive: 0 | inactive: 0 | inactive: 0 | inactive: 0 | inactive: 0 | inactive: 0 | inactive: 0 | inactive: 0 | inactive: 0 | inactive: 0 |
| CCn1c(N)c(C(=O)NC)c(=O)c2ccc(C#CC(C)(O)COC)nc21 (stereo unspecified) (10 µM) | inactive: 0 | inactive: 0 | inactive: 0 | inactive: 0 | inactive: 0 | inactive: 0 | inactive: 0 | inactive: 0 | inactive: 0 | inactive: 0 |
| CCNC(=O)Nc1ccc(-c2nc3c(c(N4CCOC[C@@H]4C)n2)CCN(C2COC2)C3)cc1 (2.5 µM) | inactive: 0 | inactive: 0 | inactive: 0 | inactive: 0 | inactive: 0 | inactive: 0 | inactive: 0 | inactive: 0 | inactive: 0 | inactive: 0 |
| Nc1ccc(C(=O)Nc2cccc(-c3nc(N4CCOCC4)c4oc5ncccc5c4n3)c2)cn1 (10 µM) | inactive: 0 | inactive: 0 | inactive: 0 | inactive: 0 | inactive: 0 | inactive: 0 | inactive: 0 | inactive: 0 | inactive: 0 | inactive: 0 |
| CNc1cc2c(Nc3cccc(Br)c3)ncnc2cn1 (10 µM) | inactive: 0 | inactive: 0 | inactive: 0 | inactive: 0 | inactive: 0 | inactive: 0 | inactive: 0 | inactive: 0 | inactive: 0 | inactive: 0 |
| COc1c(O)cc(O)c2c(=O)cc(-c3ccccc3)oc12 [Wogonin] (10 µM) | inactive: 0 | inactive: 0 | inactive: 0 | inactive: 0 | inactive: 0 | active: 1 | inactive: 0 | inactive: 0 | inactive: 0 | inactive: 0 |
| CO[C@@H]1[C@H](N(C)C(=O)c2ccccc2)C[C@H]2O[C@]1(C)n1c3ccccc3c3c4c(c5c6ccccc6n2c5c31)C(=O)NC4 [Midostaurin] (2.5 µM) | inactive: 0 | inactive: 0 | inactive: 0 | inactive: 0 | inactive: 0 | – | inactive: 0 | inactive: 0 | inactive: 0 | inactive: 0 |
| CC(C)(C)S(=O)(=O)c1cc2c(Nc3ccc4scnc4c3)ncnc2cc1OCCOP(=O)(O)O (2 µM) | inactive: 0 | inactive: 0 | inactive: 0 | inactive: 0 | inactive: 0 | inactive: 0 | inactive: 0 | inactive: 0 | inactive: 0 | inactive: 0 |
| O=C(Nc1ccnc(NC(=O)C2CC2)c1)c1c(Cl)cccc1Cl (10 µM) | inactive: 0 | inactive: 0 | inactive: 0 | inactive: 0 | inactive: 0 | inactive: 0 | inactive: 0 | inactive: 0 | inactive: 0 | inactive: 0 |

| SMILES | kinase-Nluc reporter destabilization hit call (ERN1) | kinase-Nluc reporter destabilization hit call (FGFR1) | kinase-Nluc reporter destabilization hit call (FGFR2) | kinase-Nluc reporter destabilization hit call (FGFR3) | kinase-Nluc reporter destabilization hit call (FGR) | kinase-Nluc reporter destabilization hit call (FLT3) | kinase-Nluc reporter destabilization hit call (FYN) | kinase-Nluc reporter destabilization hit call (GSK3A) | kinase-Nluc reporter destabilization hit call (HER2) | kinase-Nluc reporter destabilization hit call (INSRR) |
| --- | --- | --- | --- | --- | --- | --- | --- | --- | --- | --- |
| Nc1nccc(Oc2ccc3c(C(=O)Nc4cccc(C(F)(F)F)c4)cccc3c2)n1 (10 µM) | inactive: 0 | inactive: 0 | inactive: 0 | inactive: 0 | inactive: 0 | inactive: 0 | inactive: 0 | inactive: 0 | inactive: 0 | inactive: 0 |
| COc1ccc(Br)c(C=O)c1O [6-Bromo-2-hydroxy-3-methoxybenzaldehyde] (10 µM) | inactive: 0 | inactive: 0 | inactive: 0 | inactive: 0 | inactive: 0 | inactive: 0 | – | inactive: 0 | inactive: 0 | inactive: 0 |
| COc1cc(N2CCC(N3CCN(C)CC3)CC2)ccc1Nc1ncnc(Nc2ccccc2S(=O)(=O)C(C)C)n1 (10 µM) | inactive: 0 | inactive: 0 | inactive: 0 | inactive: 0 | inactive: 0 | inactive: 0 | inactive: 0 | inactive: 0 | inactive: 0 | inactive: 0 |
| Cc1ccc(C2CC(=O)NC(SCC(=O)Nc3nccs3)=C2C#N)cc1 (stereo unspecified) [Necrostatin-34] (10 µM) | inactive: 0 | inactive: 0 | inactive: 0 | inactive: 0 | inactive: 0 | inactive: 0 | inactive: 0 | inactive: 0 | inactive: 0 | inactive: 0 |
| CC(C)=CCC[C@](C)(O[C@@H]1O[C@H](CO[C@@H]2O[C@H](CO)[C@@H](O)[C@H](O)[C@H]2O)[C@@H](O)[C@H](O)[C@H]1O)[C@H]1CC[C@]2(C)[C@@H]1[C@H](O)C[C@@H]1[C@@]3(C)CC[C@H](O[C@@H]4O[C@H](CO)[C@@H](O)[C@H](O)[C@H]4O[C@@H]4O[C@H](CO)[C@@H](O)[C@H](O)[C@H]4O)C(C)(C)[C@@H]3CC[C@]12C [Ginsenoside Rb1] (10 µM) | inactive: 0 | inactive: 0 | inactive: 0 | inactive: 0 | inactive: 0 | inactive: 0 | inactive: 0 | inactive: 0 | inactive: 0 | inactive: 0 |
| NC(=O)c1c(NC(=O)C2CC2)sc2c1CCCC2 (10 µM) | inactive: 0 | inactive: 0 | inactive: 0 | inactive: 0 | inactive: 0 | inactive: 0 | inactive: 0 | inactive: 0 | inactive: 0 | inactive: 0 |
| CN(C)c1cc[n+](Cc2ccc(OCCOc3ccc(C[n+]4ccc(N(C)C)cc4)cc3)cc2)cc1 (10 µM) | inactive: 0 | inactive: 0 | inactive: 0 | inactive: 0 | inactive: 0 | inactive: 0 | inactive: 0 | inactive: 0 | inactive: 0 | inactive: 0 |
| Nc1ccc(-c2cccc(C(=O)Nc3cnc4nc(N5CCOCC5)oc4c3)n2)cn1 (10 µM) | inactive: 0 | inactive: 0 | inactive: 0 | inactive: 0 | inactive: 0 | inactive: 0 | inactive: 0 | inactive: 0 | inactive: 0 | inactive: 0 |
| O=C(O)/C=C(\CCc1ccc(Cl)cc1)c1ccccc1 (10 µM) | inactive: 0 | inactive: 0 | inactive: 0 | inactive: 0 | inactive: 0 | inactive: 0 | inactive: 0 | inactive: 0 | inactive: 0 | inactive: 0 |
| COc1ccc(-c2cc(=O)c3c(O)cc(O)cc3o2)cc1-c1c(O)cc(O)c2c(=O)cc(-c3ccc(O)cc3)oc12 [Bilobetin] (2.5 µM) | inactive: 0 | inactive: 0 | inactive: 0 | inactive: 0 | inactive: 0 | inactive: 0 | inactive: 0 | inactive: 0 | inactive: 0 | inactive: 0 |
| NC(=O)c1sc2c([N+](=O)[O-])cc(C(F)(F)F)cc2[n+]1[O-] [Cyclapolin 9] (10 µM) | inactive: 0 | inactive: 0 | inactive: 0 | inactive: 0 | inactive: 0 | inactive: 0 | inactive: 0 | inactive: 0 | inactive: 0 | inactive: 0 |
| COc1c(Nc2ncc(Cl)c(N[C@H]3[C@@H](C(N)=O)[C@@H]4C=C[C@H]3C4)n2)ccc2c1CC[C@@H](N1CCOCC1)CC2 (10 µM) | inactive: 0 | inactive: 0 | inactive: 0 | inactive: 0 | inactive: 0 | inactive: 0 | inactive: 0 | inactive: 0 | inactive: 0 | inactive: 0 |
| CCCCC(=O)OCC(=O)[C@]1(O)Cc2c(O)c3c(c(O)c2[C@@H](O[C@H]2C[C@H](NC(=O)C(F)(F)F)[C@H](O)[C@H](C)O2)C1)C(=O)c1c(OC)cccc1C3=O [Valrubicin] (10 µM) | inactive: 0 | inactive: 0 | inactive: 0 | inactive: 0 | inactive: 0 | inactive: 0 | inactive: 0 | inactive: 0 | inactive: 0 | inactive: 0 |
| CCOC(=O)c1c(Nc2ccccc2Cl)oc(/C=C2\C=Nc3ncccc32)c1O (10 µM) | inactive: 0 | inactive: 0 | inactive: 0 | inactive: 0 | inactive: 0 | inactive: 0 | – | inactive: 0 | inactive: 0 | inactive: 0 |
| Cn1cnc2c(F)c(Nc3ccc(Br)cc3F)c(C(=O)NOCCO)cc21 [Binimetinib] (10 µM) | inactive: 0 | inactive: 0 | inactive: 0 | inactive: 0 | inactive: 0 | inactive: 0 | active: 1 | inactive: 0 | inactive: 0 | inactive: 0 |
| C[C@@H](NC(=O)c1ncnc(N)c1Cl)c1ncc(C(=O)Nc2cc(C(F)(F)F)c(Cl)cn2)s1 (2.5 µM) | inactive: 0 | inactive: 0 | inactive: 0 | inactive: 0 | inactive: 0 | inactive: 0 | inactive: 0 | inactive: 0 | inactive: 0 | inactive: 0 |
| O=C(NC[C@H](O)CO)c1ccncc1Nc1ccc(I)cc1F [Pimasertib] (10 µM) | inactive: 0 | inactive: 0 | inactive: 0 | inactive: 0 | inactive: 0 | inactive: 0 | inactive: 0 | inactive: 0 | inactive: 0 | inactive: 0 |

Some of the entries so far, in CSV form:
SMILES,kinase-Nluc reporter destabilization hit call (ERN1),kinase-Nluc reporter destabilization hit call (FGFR1),kinase-Nluc reporter destabilization hit call (FGFR2),kinase-Nluc reporter destabilization hit call (FGFR3),kinase-Nluc reporter destabilization hit call (FGR),kinase-Nluc reporter destabilization hit call (FLT3),kinase-Nluc reporter destabilization hit call (FYN),kinase-Nluc reporter destabilization hit call (GSK3A),kinase-Nluc reporter destabilization hit call (HER2),kinase-Nluc reporter destabilization hit call (INSRR)
COc1cc2nc(-c3cc(F)ccc3O)nc(N[C@@H]3CNC[C@H]3C(C)(C)O)c2cc1OC (2.5 µM),inactive: 0,inactive: 0,inactive: 0,inactive: 0,inactive: 0,inactive: 0,inactive: 0,inactive: 0,inactive: 0,inactive: 0
S=C(NCc1ccc2c(c1)OCO2)N1CCN(c2ncnc3c2oc2ccccc23)CC1 [Amuvatinib] (2.5 µM),inactive: 0,inactive: 0,inactive: 0,inactive: 0,inactive: 0,inactive: 0,inactive: 0,inactive: 0,inactive: 0,inactive: 0
